Test results as given in the supplement of paper PMC3682954.
“And” between values parts separate entries of the source, which are not always exact repeats. Identical values can stand only once. Counter-ions that a name gives are not always drawn. ± gives the standard deviation of the averaged measurements. The list shows a part of the results. Single values are uncertain, as repeats are few or missing.

System: RAW 264.7
Assay: cell viability (MTT) relative to vehicle control; higher = more viable cells
Conditions: stimulus: HMGB1 5 ug/ml, 18 h
[1] = compound concentration: 1 ug/ml

| SMILES | cell viability [1] [%] | cell viability (compound concentration: 3 uM) |
| --- | --- | --- |
| Nc1nc2c(nc(Br)n2[C@@H]2OC(CO)C(O)C2O)c(=O)[nH]1 (stereo not given in full) | 96.8 |  |
| Cc1c(N(C)CS(=O)(=O)O)c(=O)n(-c2ccccc2)n1C [Dipyrone] |  | 106% |
| Cc1c(N(C)CS(=O)(=O)O)c(=O)n(-c2ccccc2)n1C |  | 99.4% |
| CCC(C)N(C)C(=O)c1cc2ccccc2c(-c2ccccc2Cl)n1 (stereo not given) |  | 90.1% |
| NC(=O)[C@@H]1CCCN1 [L-Prolinamide] | 97.2 |  |
| Nc1nc2ccc(Cl)cc2c2nc(-c3ccco3)nn12 |  | 107% and 94.1% |
| CC[C@H](C)C(=O)O[C@H]1CCC=C2C=C[C@H](C)[C@H](CC[C@@H]3C[C@@H](O)CC(=O)O3)[C@H]21 [mevastatin] |  | 111% |
| CC[C@H](C)C(=O)O[C@H]1CCC=C2C=C[C@H](C)[C@H](CC[C@@H]3C[C@@H](O)CC(=O)O3)[C@H]21 |  | 114% |
| CC[C@H](C)C(=O)O[C@H]1CCC=C2C=C[C@H](C)[C@H](CC[C@@H]3C[C@@H](O)CC(=O)O3)[C@H]21 [Mevastatin] |  | 113 ± 6.4% |
| Nc1cc(C(Cl)=C(Cl)Cl)c(S(N)(=O)=O)cc1S(N)(=O)=O [Clorsulon] |  | 85.6% |
| Nc1cc(C(Cl)=C(Cl)Cl)c(S(N)(=O)=O)cc1S(N)(=O)=O |  | 106 ± 1.1% |
| COc1ccc2[nH]cc(CC(N)C(=O)O)c2c1 (racemic) [DL-5-Methoxytryptophan] | 84 |  |
| C1CNCCN1 |  | 97.3% |
| COc1c2occc2c(OC)c2c(=O)cc(C)oc12 [Khellin] | 97.2 | 95.3% |
| COc1c2occc2c(OC)c2c(=O)cc(C)oc12 |  | 106% |
| NCC(O)CC(=O)O (stereo not given) |  | 106% |
| O=C(/C=C/c1ccc(O)c(O)c1)OCCc1ccccc1 [Caffeic acid phenethyl ester] |  | 45.8% |
| NNc1nncc2ccccc12 |  | 103% |
| NNc1nncc2ccccc12 [Hydralazine hydrochloride] |  | 99.5 ± 9.2% |
| CC(=O)OCC(CCn1cnc2cnc(N)nc21)COC(C)=O [Famciclovir] |  | 97.8 ± 4% |
| CC(=O)OCC(CCn1cnc2cnc(N)nc21)COC(C)=O |  | 101.4 ± 0.3% |

| SMILES | cell viability [1] [%] | cell viability (compound concentration: 3 uM) |
| --- | --- | --- |
| Nc1ncnc2c1c(I)cn2[C@@H]1C[C@H](N)[C@@H](O)[C@H]1O |  | 111% |
| CN1CCN(c2c(F)cc3c(=O)c(C(=O)O)cn(CCF)c3c2F)CC1 [Fleroxacin] |  | 101 ± 13% |
| C[C@H](CCC(=O)O)[C@H]1CC[C@H]2[C@@H]3[C@H](O)C[C@@H]4C[C@H](O)CC[C@]4(C)[C@H]3CC[C@]12C |  | 99.5% |
| C[C@H](CCC(=O)O)[C@H]1CC[C@H]2[C@@H]3[C@H](O)C[C@@H]4C[C@H](O)CC[C@]4(C)[C@H]3CC[C@]12C [Chenodiol] |  | 106% |
| O=C1c2ccccc2C(=O)c2c1ccc(O)c2O [Alizarin] | 107 |  |
| Cc1nc(=O)c2cc(CN(C)c3ccc(C(=O)N[C@@H](CCC(=O)O)C(=O)O)s3)ccc2[nH]1 |  | 97.9% |
| CN1CCN(CCCN2c3ccccc3Sc3ccc(Cl)cc32)CC1 |  | 97.3% and 92.4% |
| CN1CCN(CCCN2c3ccccc3Sc3ccc(Cl)cc32)CC1 [Prochlorperazine dimaleate] |  | 106 ± 14% |
| CC(=O)[C@]1(O)Cc2c(O)c3c(c(O)c2[C@@H](O[C@H]2C[C@H](N)[C@H](O)[C@H](C)O2)C1)C(=O)c1ccccc1C3=O [Idarubicin] |  | 4.09 ± 0.6% |
| CC(=O)[C@]1(O)Cc2c(O)c3c(c(O)c2[C@@H](O[C@H]2C[C@H](N)[C@H](O)[C@H](C)O2)C1)C(=O)c1ccccc1C3=O |  | 2.08% |
| Cn1ccc2cc(NC(=O)Nc3cccnc3)ccc21 |  | 102% |
| O=c1oc2ccccc2c(O)c1Cc1c(O)c2ccccc2oc1=O [Dicumarol] |  | 133% |
| O=c1oc2ccccc2c(O)c1Cc1c(O)c2ccccc2oc1=O |  | 96.9% |
| O=C(O)COC(=O)Cc1ccccc1Nc1c(Cl)cccc1Cl [Aceclofenac] |  | 95.5 ± 4.3% |
| C[C@@H]1C[C@H]2[C@@H]3CCC4=CC(=O)C=C[C@]4(C)[C@@]3(F)[C@@H](O)C[C@]2(C)[C@@]1(O)C(=O)CO |  | 106% |
| C[C@@H]1C[C@H]2[C@@H]3CCC4=CC(=O)C=C[C@]4(C)[C@@]3(F)[C@@H](O)C[C@]2(C)[C@@]1(O)C(=O)CO [Dexamethasone] |  | 113% |
| OC1(c2ccc(Cl)c(C(F)(F)F)c2)CCN(CCCC(c2ccc(F)cc2)c2ccc(F)cc2)CC1 |  | 91.9% |
| COc1cc2ccc(=O)oc2cc1OC1OC(COC2OC(C)C(O)C(O)C2O)C(O)C(O)C1OC1OC(C)C(O)C(O)C1O (stereo not given) [Haploperozide] | 108 |  |
| N=C(N)SCCc1c[nH]cn1 [Imetit dihydrobromide] |  | 102% |
| CC1(C)O[C@@H]2C[C@H]3[C@@H]4CCC5=CC(=O)C=C[C@]5(C)[C@@]4(F)[C@@H](O)C[C@]3(C)[C@]2(C(=O)CO)O1 |  | 113% |
| O=C(O)CCCc1ccccc1 [Sodium Phenylbutyrate] |  | 97.4% |

| SMILES | cell viability [1] [%] | cell viability (compound concentration: 3 uM) |
| --- | --- | --- |
| CC(C)NCC(O)COc1ccc(CC(N)=O)cc1 (racemic) [(±)-Atenolol] |  | 111% |
| Cc1cnc(NC(=O)C2=C(O)c3ccccc3S(=O)(=O)N2C)s1 |  | 104% |
| Cc1cnc(NC(=O)C2=C(O)c3ccccc3S(=O)(=O)N2C)s1 [Meloxicam sodium] |  | 105% |
| Cc1cnc(NC(=O)C2=C(O)c3ccccc3S(=O)(=O)N2C)s1 [Meloxicam] |  | 97.8 ± 9.9% |
| CCCCCCCC/C=C/CCCCCCCCOP(=O)([O-])OCC[N+](C)(C)C |  | 143% |
| OC[C@H]1O[C@@H](n2cnc3c(NCc4ccco4)ncnc32)[C@H](O)[C@@H]1O [Kinetin-9-riboside] | 94.8 |  |
| CC1CC(OC(=O)C(O)c2ccccc2)CC(C)(C)N1C (stereo not given) |  | 110% |
| CC1CC(OC(=O)C(O)c2ccccc2)CC(C)(C)N1C (stereo not given) [Eucatropine hydrochloride] |  | 137% |
| O=C(N[C@@H](Cc1c[nH]c2ccccc12)C(=O)O)OCC1c2ccccc2-c2ccccc21 [Nalpha-FMOC-L-Tryptophan] | 117 |  |
| C1CCN2C[C@@H]3C[C@@H](CN4CCCC[C@@H]34)[C@H]2C1 |  | 113% |
| CCN1CCN(c2cc3c(cc2F)c(=O)c(C(=O)O)cn3C2CC2)CC1 [Enrofloxacin] |  | 102% |
| CCN1CCN(c2cc3c(cc2F)c(=O)c(C(=O)O)cn3C2CC2)CC1 |  | 99.4 ± 11% |
| CCN1CCC[C@H]1CNC(=O)c1c(OC)ccc(Br)c1OC [Remoxipride Hydrochloride] |  | 69.5% |
| CCN1CCC[C@H]1CNC(=O)c1c(OC)ccc(Br)c1OC [Remoxipride] |  | 102% |
| COc1cc(NS(C)(=O)=O)ccc1Nc1c2ccccc2nc2ccccc12 [Amsacrine hydrochloride] |  | 19.4% |
| COc1cc(NS(C)(=O)=O)ccc1Nc1c2ccccc2nc2ccccc12 |  | 83.6 ± 4.1% |
| CN(C)c1ccc(/C=C2/C(=O)Nc3ccccc32)cc1 |  | 119% |
| Cc1nnc(NS(=O)(=O)c2ccc(N)cc2)s1 |  | 102% |
| Cc1nnc(NS(=O)(=O)c2ccc(N)cc2)s1 [Sulfamethizole] |  | 132% |
| CC(=O)OCC1OC(Oc2cc(OC(C)=O)c3c(=O)c(-c4ccc(OC(C)=O)c(OC(C)=O)c4)coc3c2)C(OC(C)=O)C(OC(C)=O)C1OC(C)=O (stereo not given) [Orobole 7-O-Glucoside, Acetate] | 107 |  |
| COc1cc(O)c2c(=O)cc(-c3ccccc3)oc2c1 | 93.8 |  |

| SMILES | cell viability [1] [%] | cell viability (compound concentration: 3 uM) |
| --- | --- | --- |
| CC(C)C1=CC2=CC[C@@H]3[C@](C)(CCC[C@@]3(C)C(=O)O)[C@H]2CC1 [Abietic acid] | 95.3 |  |
| C[C@H]1C[C@H]2[C@@H]3CCC4=CC(=O)C=C[C@]4(C)[C@@]3(F)[C@@H](O)C[C@]2(C)[C@@]1(O)C(=O)CO |  | 114% |
| C[C@H]1C[C@H]2[C@@H]3CCC4=CC(=O)C=C[C@]4(C)[C@@]3(F)[C@@H](O)C[C@]2(C)[C@@]1(O)C(=O)CO [Betamethasone] |  | 99.1 ± 8.4% |
| CCCn1c(=O)c2c(ncn2C)n(CCC)c1=O [1,3-Dipropyl-7-methylxanthine] |  | 98.3% |
| Oc1ccc(OCc2ccccc2)cc1 [Monobenzone] |  | 101% |
| CC1=Nc2ccc(Cl)cc2S(=O)(=O)N1 [Diazoxide] |  | 103 ± 7.1% |
| CC1=Nc2ccc(Cl)cc2S(=O)(=O)N1 |  | 96 ± 3.5% |
| CO[C@@]12[C@H](COC(N)=O)C3=C(C(=O)C(C)=C(N)C3=O)N1C[C@@H]1N[C@@H]12 |  | 99.1 ± 11% |
| CO[C@@]12[C@H](COC(N)=O)C3=C(C(=O)C(C)=C(N)C3=O)N1C[C@@H]1N[C@@H]12 [Mitomycin C] |  | 97.3% |
| CC(C(=O)O)c1ccc(N2Cc3ccccc3C2=O)cc1 (stereo not given) |  | 106% |
| CC(C(=O)O)c1ccc(N2Cc3ccccc3C2=O)cc1 (stereo not given) [Indoprofen] |  | 90.6% |
| CN(C)CCOc1ccc(/C(=C(/CCCl)c2ccccc2)c2ccccc2)cc1 [Toremifene] |  | 120 ± 11% |
| CN(C)CCOc1ccc(/C(=C(/CCCl)c2ccccc2)c2ccccc2)cc1 |  | 112% and 103% |
| CCN1CCN(C(=O)N[C@@H](C(=O)N[C@@H]2C(=O)N3C(C(=O)O)=C(CSc4nnnn4C)CS[C@H]23)c2ccc(O)cc2)C(=O)C1=O [Cefoperazone acid] |  | 91.8% |
| CCN1CCN(C(=O)N[C@@H](C(=O)N[C@@H]2C(=O)N3C(C(=O)O)=C(CSc4nnnn4C)CS[C@H]23)c2ccc(O)cc2)C(=O)C1=O [Cefoperazone dihydrate] |  | 104% |
| CCN1CCN(C(=O)N[C@@H](C(=O)N[C@@H]2C(=O)N3C(C(=O)O)=C(CSc4nnnn4C)CS[C@H]23)c2ccc(O)cc2)C(=O)C1=O |  | 102% |
| O=C(NCCO[N+](=O)[O-])c1cccnc1 |  | 97% |
| O=C(NCCO[N+](=O)[O-])c1cccnc1 [Nicorandil] |  | 109 ± 18% |
| Cc1ccc(Cl)c(Nc2ccccc2C(=O)O)c1Cl |  | 115% |
| Cc1ccc(Cl)c(Nc2ccccc2C(=O)O)c1Cl [Meclofenamic acid sodium salt monohydrate] |  | 88.1% |
| Cc1ccc(Cl)c(Nc2ccccc2C(=O)O)c1Cl [Meclofenamic acid sodium] |  | 116% |
